# According to patent US20120142634A1, “Method of Treating Cancer with a Combination of a Proteasome Inhibitor and Salubrinal” (MOUNT SINAI SCHOOL OF MEDICINE OF NEW YORK UNIVERSITY, priority 2008, published 2012):
# Some of these results come from one statement about several compounds together. Where a SMILES comes first, the peptide text is derived from it. The star is where a group is joined. Cbz = O=C(OCc1ccccc1)*
# Tests used:
# Format in all cases: cell-based
# U266B1 cells = assay: Viability assay (trypan blue); settings: proteasome inhibitor alone, 24 hours
# Procedure: Reagents, antibodies, RT-PCR, cell lines and tissue culture, plasmids. Proteasome inhibitor (MG-132, Velcade®; each commercially available) treatments were performed using 400 nM MG-132 or 4 nM Bortezomib (Velcade®) for 24 hours. The drug was then removed by serial washes with PBS and the remaining viable cells were replated. Salubrinal treatments were performed using the drug at 5 or 10 μg/ml, as indicated, for 24 hours. RPMI8226 cells contain a c-MYC insertion on t(16;22)(q32;q11):der16; U266B1 cells (t(11;14)) were from ATCC. Cells were cultured according to ATCC recommendations. Antibodies (identified by the antigen specifically recognized): p-Rb, Rb, p-eIF2α, eIF2α, GCN2, p-GCN2, p-PKR and PKR from Cell Signaling (Beverly, Mass.), p-PERK and PERK from Santa Cruz Biotechnology (Santa Cruz, Calif.), BiP from BD (San Jose, Calif.), GAPDH from Calbiochem (Beverly, Mass.), and β-tubulin from Abcam (Cambridge, Mass.). Total RNA was extracted using Trizol (Invitrogen, Carlsbad, Calif.). Primer sequences were published previously (Sequeira, et al., PLoS ONE 2(7):e615 2007, incorporated herein by reference in its entirety). The pCLBabe-eIF2αS51D plasmid was provided by Dr. David Schubert (Salk Institute, La Jolla, Calif.) and can be constructed using known techniques. […]
# (§1) Viability assay, Immunoblotting. Cell viability was assessed using trypan blue. […]
# RPMI8226 cells [1] = assay: CFSE label retention assay; settings: surviving RPMI8226 cells, 72 hours after washout; MG-132 400 nM or Bortezomib 4 nM
# RPMI8226 cells [2] = assay: Viability assay (trypan blue); settings: proteasome inhibitor alone, 24 hours
# Procedure: Reagents, antibodies, RT-PCR, cell lines and tissue culture, plasmids. Proteasome inhibitor (MG-132, Velcade®; each commercially available) treatments were performed using 400 nM MG-132 or 4 nM Bortezomib (Velcade®) for 24 hours. The drug was then removed by serial washes with PBS and the remaining viable cells were replated. […] RPMI8226 cells contain a c-MYC insertion on t(16;22)(q32;q11):der16; U266B1 cells (t(11;14)) were from ATCC. Cells were cultured according to ATCC recommendations. Antibodies (identified by the antigen specifically recognized): p-Rb, Rb, p-eIF2α, eIF2α, GCN2, p-GCN2, p-PKR and PKR from Cell Signaling (Beverly, Mass.), p-PERK and PERK from Santa Cruz Biotechnology (Santa Cruz, Calif.), BiP from BD (San Jose, Calif.), GAPDH from Calbiochem (Beverly, Mass.), and β-tubulin from Abcam (Cambridge, Mass.). Total RNA was extracted using Trizol (Invitrogen, Carlsbad, Calif.). Primer sequences were published previously (Sequeira, et al., PLoS ONE 2(7):e615 2007, incorporated herein by reference in its entirety). The pCLBabe-eIF2αS51D plasmid was provided by Dr. David Schubert (Salk Institute, La Jolla, Calif.) and can be constructed using known techniques. Transfection of RPMI8226 cells was performed using Amaxa technology according to the manufacturer's instructions (Gaithersburg, Md.).
# as §1
smiles,measurement,setting,value
CC(C)C[C@@H](C=O)NC(=O)[C@H](CC(C)C)NC(=O)[C@H](CC(C)C)NC(=O)OCc1ccccc1 [MG-132] (Cbz-Leu-Leu-Leu-aldehyde),cell death,U266B1 cells,40-50%
same,increase in the percentage of CFSE-positive cells,RPMI8226 cells [1],4-7 fold
same,cell death,RPMI8226 cells [2],40-50%
